Reference: PubChem BioAssay AID1487 (National Center for Advancing Translational Sciences (NCATS), 2009)
Values joined by “and” are separate entries in the source; they are usually repeats but may differ in a detail not shown here. Equal entries are not always repeated. This is one part of the list. These are further read-outs of the screen, such as a control signal, another cell line or another target. No call is given for them. Most of these compounds were active or inconclusive in the main read-out, so they are no random draw. The note in brackets gives the kind of curve behind each potency; many fits are weak.

Assay: qHTS Assay for Modulators of Lamin A Splicing
Settings: HeLa LMNA splicing GFP/RFP minigene ratio, 48 h
Source text: NCGC Assay Overview: Hutchinson-Gilford Progeria Syndrome (HGPS) is a pediatric premature aging disease caused by a spontaneous mutation in the lamin A/C (LMNA) gene. The mutation activates a cryptic splice site in the LMNA pre-mRNA which results in production of a pre-lamin A protein that cannot be processed properly. The mutant protein accumulates in the nucleus and negatively affects numerous cellular functions. Correction of the splicing defect in HGPS patient cells using a targeted oligonucleotide (exo11) leads to reversal of the cellular disease phenotypes. To identify small molecule modulators of aberrant LMNA splicing, a homogenous assay was constructed in HeLa cells that used a GFP containing minigene to report on correction of aberrant splicing in lamin A and a RFP (DsRed2) to report on cell viability, uniformity and nonspecific effects on the assay signal. This assay was adapted to laser-scanning microplate cytometry (Acumen, TTP Labtech) where miniaturization of the assay to a 1,536-well plate format was possible. References: Bowen, W. P.; Wylie, P. G. Application of Laser-Scanning Fluorescence Microplate Cytometry in High Content Screening. Assay Drug Dev Technol 2006;4:209-221. Scaffidi P, Misteli T. Reversal of the cellular phenotype in the premature aging disease Hutchinson-Gilford progeria syndrome. Nat.
NCGC Assay Protocol Summary: Reagents/Controls: Stable clones expressing DsRed2 and lamin A-EGFP were generated by Cell and Molecular Technologies in S3 HeLa cells. HeLa cells were prepared for the assay when they were 70-90% confluent. The cells were counted and resuspended in Opti-MEM I (no phenol red; Gibco), 2% FBS, 1% penicillin/ streptomycin (Gibco) at concentration of 120 cells/uL concentration. The suspension was passed through a Falcon basket filter with pore size 40um (Beckton Dickson). Control titrations: column […] 1536-well plate contained a sixteen point titration (1:2 dilutions) in duplicate of ancitabine (Sigma: A8598) beginning at 40 uM final concentration. Column 2 contained a sixteen point titration (1:2 dilutions) of cycloheximide beginning at 1.4 mM final concentration. Column 3 contained ancitabine at 40 uM and column 4 contained was the vehicle control (0.5% DMSO final concentration). Assay Steps: 5 uL of HeLa cells were plated in Aurora LoBase black clear bottom (cyclic-olefin polymer) 1536-well plates at a final density of 600 cells/well. Controls and library compounds were added with a 1536-well pin array using the Kalypsys pin-tool. The plates were then incubated for 48 hrs in a cell-culture incubator (37 °C; 5% CO2, 98% humidity). Following incubation the plates were read on the Acumen Explorer using the 488 nm laser. Data was collected on objects between 10 and 100 um in size. Cell objects were defined by a 15 um width x 10 um depth filter. The ratio of the total object intensity in PMT1 (500-530 nm emission; GFP) over PMT3 (575-640 nm emission; RFP) was calculated for analysis. Keywords: NIH Roadmap, MLSCN, MLI, MLSMR, qHTS, NCGC, lamin A, Progeria, RNA splicing.

[1] = measured here: GFP splicing reporter channel
[2] = measured here: RFP viability control channel

SMILES | AC50 [1] | AC50 [2]
COc1ccccc1N1CCNCC1 | 5.62 µM [falling, partial curve, poor fit] | 6.31 µM [falling, partial curve, poor fit]
COC(=O)CCc1nc2c(C#N)c(-c3ccc(Cl)cc3)ccn2n1 |  | 0.0355 µM [falling, full curve, poor fit]
CCCNC(=O)c1cnn2c(C)c(Cc3c(C)cc(C)cc3C)c(C)nc12 | 17.8 µM [falling, partial curve, poor fit] | 35.5 µM [falling, single point]
Nc1ncnc2c1ncn2[C@@H]1O[C@H](COP(=O)(O)OP(=O)(O)OP(=O)(O)O)[C@@H](O)[C@H]1O | 3.16 µM [falling, full curve, poor fit] | 0.00501 µM [falling, full curve, poor fit]
C[C@]12CC[C@@H]3c4cc(O)c(O)cc4CC[C@H]3[C@@H]1CC[C@@H]2O | 12.6 µM [falling, partial curve, poor fit] | 17.8 µM [falling, single point]
CN1C[C@@H](CS(=O)(=O)N(C)C)C[C@@H]2c3cccc4c3c(cn4C)C[C@H]21 | 6.31 µM [falling, partial curve, poor fit] | 5.62 µM [falling, partial curve, poor fit]
CNCCC(Oc1ccc(C(F)(F)F)cc1)c1ccccc1 (centres undefined) | 1.58 µM [rising, full curve] and 4.47 nM [falling, full curve, poor fit] and 11.2 µM [falling, partial curve, poor fit] | 12.6 µM [falling, partial curve, poor fit] and 158 nM [falling, full curve, poor fit]
COc1cc(CN2C(=O)NC(=O)C3(Cc4cc(C)ccc4N(C)C3)C2=O)cc(OC)c1 (centres undefined) |  | 14.1 µM [rising, single point]
Oc1ccc(Cl)cc1Cc1cc(Cl)ccc1O | 1.58 µM [falling, partial curve, poor fit] | 3.55 µM [rising, single point]
CC12CN3CC(C)(CN(C1)C3c1ccncc1)C2=O (centres undefined) |  | 5.62 µM [falling, single point]
CC(=O)Nc1ccc(S(=O)(=O)N2CCSC2c2ccc(C)cc2)cc1 (centres undefined) | 1.41 µM [rising, full curve] | 14.1 µM [rising, partial curve]
O=C1CC(c2cccnc2)=NN1c1ccc(Cl)cc1Cl |  | 14.1 µM [rising, partial curve, poor fit]
NC(=O)c1ncn([C@@H]2O[C@H](CO)[C@@H](O)[C@H]2O)n1 | 5.62 µM [falling, partial curve, poor fit] | 0.00398 µM [falling, full curve, poor fit]
CCN(CC)S(=O)(=O)c1ccc(C)c(NCC(=O)Nc2ccc(C#N)c(Cl)c2)c1 | 35.5 µM [rising, single point] | 28.2 µM [rising, single point]
CC(C)C(=O)Nc1ccc(C(=O)NCc2cccnc2)cc1 |  | 35.5 µM [rising, single point]
O=C1NC(=O)C2(Cc3ccccc3N3CCCC32)C(=O)N1c1ccccc1 (centres undefined) |  | 0.631 µM [rising, full curve, poor fit]
COc1cccc(NP(=O)(Oc2ccccc2Cl)Oc2ccccc2Cl)c1 | 35.5 µM [falling, partial curve, poor fit] | 
COP(=O)(OC)C1(O)C(=O)Nc2ccc(Br)cc21 (centres undefined) |  | 2.51 µM [rising, partial curve]
C/C(O)=C(\C#N)C(=O)Nc1cc(Br)ccc1Br | 20 µM [rising, partial curve, poor fit] | 20 µM [rising, single point]
CNC(=O)Oc1cccc2c1OC(C)(C)C2 | 17.8 µM [rising, partial curve] | 14.1 µM [rising, partial curve, poor fit]
CC(C)COC(=O)OCN1C(=O)CN(CCN2CC(=O)N(COC(=O)OCC(C)C)C(=O)C2)CC1=O |  | 10 µM [rising, partial curve, poor fit]
O=C(O)C1C2CCC(O2)C1C(=O)Nc1ccc(Cl)cc1 (centres undefined) |  | 35.5 µM [rising, single point]
Cc1ccc(CN2C(=O)c3ccccc3Sc3ccc(C(=O)N4CCC5(CC4)OCCO5)cc32)cc1 | 5.62 µM [falling, partial curve, poor fit] | 0.02 µM [falling, full curve, poor fit]
COC(=O)C1=C(N)Oc2cc(C)oc(=O)c2C12C(=O)Nc1ccccc12 (centres undefined) |  | 0.178 µM [rising, full curve, poor fit]
Oc1ccc2c3c1O[C@H]1[C@@H](O)CC[C@@]4(O)C(C2)N(CC2CCC2)CCC314 (some centres undefined) | 35.5 µM [falling, single point] | 11.2 µM [falling, partial curve, poor fit]

Sorted by formula weight (rising): three of the compounds above
SMILES | AC50 [1] | AC50 [2]
Oc1ccc(Cl)cc1Cc1cc(Cl)ccc1O | 1.58 µM [falling, partial curve, poor fit] | 3.55 µM [rising, single point]
O=C1NC(=O)C2(Cc3ccccc3N3CCCC32)C(=O)N1c1ccccc1 (centres undefined) |  | 0.631 µM [rising, full curve, poor fit]
CCCNC(=O)c1cnn2c(C)c(Cc3c(C)cc(C)cc3C)c(C)nc12 | 17.8 µM [falling, partial curve, poor fit] | 35.5 µM [falling, single point]

The results go on.

SMILES | AC50 [1] | AC50 [2]
O=c1[nH]c(=O)n(Cc2ccco2)c(O)c1C=NCc1ccco1 | 35.5 µM [rising, single point] | 
CN1C(=O)N(C)C(=O)C2(Cc3cc([N+](=O)[O-])ccc3N(C)C2)C1=O |  | 0.0126 µM [falling, full curve, poor fit]
CCCC(C)(COC(N)=O)COC(=O)NC(C)C (centres undefined) |  | 0.00562 µM [falling, full curve, poor fit]
CCC1(C)CC(=O)NC(=O)C1 | 6.31 µM [rising, partial curve, poor fit] | 11.2 µM [rising, partial curve, poor fit]
Cc1nc2ccc(Br)cc2c(=O)n1-c1ccc([N+](=O)[O-])c(C(F)(F)F)c1 |  | 0.282 µM [falling, single point]
CC(c1ncncc1F)[C@](O)(Cn1cncn1)c1ccc(F)cc1F (some centres undefined) |  | 15.8 µM [falling, single point]
CCN(CC)C(=O)c1c(C)[nH]c(=S)c(C#N)c1-c1ccco1 |  | 0.00398 µM [falling, full curve, poor fit]
CN1[C@@H]2CC[C@H]1CC(OC(=O)C1C=Nc3ccccc31)C2 (some centres undefined) |  | 35.5 µM [rising, single point]
COc1cc([C@@H]2c3cc4c(cc3[C@H](O)C3COC(=O)[C@@H]32)OCO4)cc(OC)c1OC (some centres undefined) | 0.0141 µM [falling, full curve] | 0.0141 µM [falling, full curve]
NN=C(N)N |  | 0.0158 µM [rising, full curve, poor fit]
COc1ccc2c3c1O[C@H]1C(=O)CC[C@@]4(O)C(C2)N(CC2CC2)CCC314 (some centres undefined) | 35.5 µM [falling, single point] | 15.8 µM [falling, partial curve, poor fit]
c1ccc(C(c2ccccc2)N2CCN(c3ccc4ccccc4n3)CC2)cc1 | 35.5 µM [rising, single point] | 35.5 µM [rising, partial curve]
Cc1cccc(OP(=O)(NCc2ccccc2)Oc2cccc(C)c2)c1 |  | 14.1 µM [rising, single point]
CCCC(C)C1(CC)C(=O)NC(=Nc2ccccc2)NC1=O (centres undefined) |  | 31.6 µM [rising, single point]
COc1ccc(-c2nc3ccccc3c(=O)o2)cc1 | 0.00708 µM [falling, full curve, poor fit] | 0.00501 µM [falling, full curve, poor fit]
COc1ccc(OCC(=O)N2CCN(Cc3c[nH]c4ccccc34)CC2)cc1 |  | 12.6 µM [rising, partial curve]
O=[N+]([O-])c1cccc(C2N3CCCN23)c1 (centres undefined) |  | 0.158 µM [rising, full curve, poor fit]
Clc1ccc(C(c2ccc(Cl)cc2)C(Cl)(Cl)Cl)cc1 | 0.00224 µM [falling, full curve, poor fit] | 0.501 µM [falling, partial curve, poor fit]
COc1ccc(N2C(=O)NC(=O)/C(=C\c3ccc([N+](=O)[O-])s3)C2=O)cc1 |  | 10 µM [rising, partial curve]
OC(c1ccccc1)(c1ccccc1)C1CCNCC1 | 5.01 µM [falling, partial curve, poor fit] | 3.55 µM [falling, full curve, poor fit]
S=c1[nH]nc(-c2ccco2)n1Cc1ccccc1 |  | 28.2 µM [falling, single point]
CCc1ccc(CN2CCCC(C(=O)c3sccc3C)C2)o1 (centres undefined) |  | 0.0224 µM [falling, full curve, poor fit]
CC1=CC(=O)C2=C(C)C[C@@H](O)[C@@H]3[C@@H](OC(=O)[C@H]3C)[C@H]12 | 0.0631 µM [falling, single point] | 0.0708 µM [falling, single point]
C[C@]12CCC(=O)C=C1CC[C@@H]1[C@@H]2CC[C@]2(C)C(=O)CC[C@@H]12 | 6.31 µM [falling, single point] | 10 µM [rising, partial curve] and 25.1 nM [rising, full curve, poor fit]
O=C(CSc1nnc(NC(=O)C2CCCCC2)s1)NCc1ccco1 | 0.0224 µM [falling, full curve, poor fit] | 0.0251 µM [falling, full curve]
